Measured data: PubChem BioAssay AID1508597 (Cure First, 2020)

Purpose: 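Genes whose silencing sensitises or protects ovarian cancer cells against rucaparib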 (primary screen)
System: human ovarian carcinoma lines grown from tumours: OCI-P5x (papillary serous) and OCI-C5x (clear cell)
Reagent: siRNA pool against human genes, 1.25 pmol siRNA per well
Timing: 72 h or 96 h, depending on the cell culture
Treatment: rucaparib 20 µM (about IC30) or vehicle, present until read-out
Rucaparib or vehicle: Rucaparib
Cell line: OCI-C5x (clear cell)
Measured: 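Luminescent ATP-based viability assay read 72 or 96 h after transfection, depending on culture, given as normalised percent viability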
Direction: viability, normalised: higher = more viable cells remaining
Call rule: 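Active when normalised viability falls below 80 percent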
Calls: active = viability under 80%; inactive = viability 80% or more
Shown is a random part of the about 2,100 reagents, in one setting of the screen. 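Calls flag viability under 80% in either arm, not effects specific to rucaparib; the reference for percent is not stated.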 A reagent listed more than once was tested more than once; the source does not tell the runs apart. The record does not give: the 100% reference.

no.	gene	technical replicate	viability, normalised (%)	outcome
1	MECP2 (GeneID 4204)	1	43	active
2	MECP2 (GeneID 4204)	2	39.1	active
3	MECP2 (GeneID 4204)	3	54.8	active
4	ACE (GeneID 1636)	1	30.3	active
5	ACE (GeneID 1636)	2	52.2	active
6	ACE (GeneID 1636)	3	44	active
7	ERCC2 (GeneID 2068)	1	69.1	active
8	ERCC2 (GeneID 2068)	1	50.8	active
9	ERCC2 (GeneID 2068)	2	51.9	active
10	ERCC2 (GeneID 2068)	2	65.8	active
11	ERCC2 (GeneID 2068)	3	63.5	active
12	ERCC2 (GeneID 2068)	3	58.2	active
13	CBX5 (GeneID 23468)	1	51.1	active
14	CBX5 (GeneID 23468)	1	69.4	active
15	CBX5 (GeneID 23468)	2	70.1	active
16	CBX5 (GeneID 23468)	2	58.2	active
17	CBX5 (GeneID 23468)	3	65.7	active
18	CBX5 (GeneID 23468)	3	38.8	active
19	ATR (GeneID 545)	1	48.7	active
20	ATR (GeneID 545)	1	72.2	active
21	ATR (GeneID 545)	2	66.6	active
22	ATR (GeneID 545)	2	47.8	active
23	ATR (GeneID 545)	3	50.8	active
24	ATR (GeneID 545)	3	70.5	active
25	GEMIN4 (GeneID 50628)	1	29.4	active
26	GEMIN4 (GeneID 50628)	2	33	active
27	GEMIN4 (GeneID 50628)	3	45.4	active
28	CETN2 (GeneID 1069)	1	43.3	active
29	CETN2 (GeneID 1069)	2	45.4	active
30	CETN2 (GeneID 1069)	3	53.1	active
31	MED22 (GeneID 6837)	1	32	active
32	MED22 (GeneID 6837)	2	38	active
33	MED22 (GeneID 6837)	3	40.5	active

Entries listed so far whose target name begins with C or c:
gene	technical replicate	viability, normalised (%)	outcome
CBX5 (GeneID 23468)	1	51.1	active
CBX5 (GeneID 23468)	1	69.4	active
CBX5 (GeneID 23468)	2	70.1	active
CBX5 (GeneID 23468)	2	58.2	active
CBX5 (GeneID 23468)	3	65.7	active
CBX5 (GeneID 23468)	3	38.8	active
CETN2 (GeneID 1069)	1	43.3	active
CETN2 (GeneID 1069)	2	45.4	active
CETN2 (GeneID 1069)	3	53.1	active

The list goes on:
no.	gene	technical replicate	viability, normalised (%)	outcome
34	RASSF7 (GeneID 8045)	1	50.8	active
35	RASSF7 (GeneID 8045)	2	50	active
36	RASSF7 (GeneID 8045)	3	64.2	active
37	BAK1 (GeneID 578)	1	52.9	active
38	BAK1 (GeneID 578)	2	42.2	active
39	BAK1 (GeneID 578)	3	46.9	active
40	ENPP7 (GeneID 339221)	1	53.8	active
41	ENPP7 (GeneID 339221)	2	66.2	active
42	ENPP7 (GeneID 339221)	3	44.1	active
43	CBX3 (GeneID 11335)	1	71.2	active
44	CBX3 (GeneID 11335)	2	58.9	active
45	CBX3 (GeneID 11335)	3	61.7	active
46	ITK (GeneID 3702)	1	34.9	active
47	ITK (GeneID 3702)	2	52.6	active
48	ITK (GeneID 3702)	3	41.6	active
49	EPHA1 (GeneID 2041)	1	54.4	active
50	EPHA1 (GeneID 2041)	2	42.8	active
51	EPHA1 (GeneID 2041)	3	49.7	active
52	HP1BP3 (GeneID 50809)	1	41.4	active
53	HP1BP3 (GeneID 50809)	2	42	active
54	HP1BP3 (GeneID 50809)	3	48.1	active
55	CHD3 (GeneID 1107)	1	46.5	active
56	CHD3 (GeneID 1107)	2	51.5	active
57	CHD3 (GeneID 1107)	3	47.4	active
